This passage reports survivor count and T/C results from PubChem BioAssay AID330 (DTP/NCI, 2004).

This assay deals with P388 leukemia ip, CD2F1 mice, survival T/C. Nature of the assay: NCI In Vivo Anticancer Drug Screen. Data for tumor model P388 Leukemia (intraperitoneal) in CD2F1 (CDF1) mice. The following applies: T/C endpoint: median survival time, higher T/C = longer survival.
The mark [1] stands for this setting: dose: 400.0 mg/kg/injection, schedule: Q01DX009 (ip), vehicle: saline.
[2] abbreviates: dose: 200.0 mg/kg/injection, schedule: Q01DX005 (ip), vehicle: saline with Tween-80.
Where [3] appears, read: dose: 12.5 mg/kg/injection, schedule: Q01DX005 (ip), vehicle: Klucel (hydroxypropylcellulose) (HPC).
Where [4] appears, read: dose: 200.0 mg/kg/injection, schedule: Q01DX005 (ip), vehicle: Klucel (hydroxypropylcellulose) (HPC).
The mark [5] stands for this setting: dose: 240.0 mg/kg/injection, schedule: Q01DX005 (ip), vehicle: saline with Tween-80.
Setting [6] is: dose: 200.0 mg/kg/injection, schedule: Q01DX005 (ip), vehicle: saline.
Where [7] appears, read: dose: 200.0 mg/kg/injection, schedule: Q01DX009 (ip), vehicle: saline.
Setting [8] is: dose: 100.0 mg/kg/injection, schedule: Q01DX009 (ip), vehicle: saline with Tween-80.
[9] abbreviates: dose: 200.0 mg/kg/injection, schedule: Q01DX009 (ip), vehicle: saline with Tween-80.

The list does not hold the whole screen: it gathers tests that were run many times, whatever their T/C, doses with no T/C, and many T/C values between a quarter and a half above the control. Further doses and runs are listed elsewhere. T/C is the treated group as % of the vehicle group. Some entries give survivors of the animals treated and no T/C: the source files T/C as zero there, which appears to mark a toxic dose or a test without result, not a measured value. Some survivor counts are full or nearly so, which does not show that the dose was tolerated: survival well below the control is almost never listed, so the zero probably covers shortened survival too. Counts of survivors are from the toxicity check (mostly the fifth day) where no day follows; animals may have died later. Schedules are NCI's codes, read here as Q, the interval in days (D) or hours (H), X, the number of doses. Where survival is the endpoint, this PubChem deposit counts one and a half times the control or more as active, and values a quarter to a half above the control carry no call in these data; other NCI protocols may use other cut-offs. Some entries were tested several times; the values are given in rising order.

For `CC(=O)[C@H]1[C@H](O)C[C@H]2[C@@H]3CCC4=CC(=O)CC[C@]4(C)[C@@]3(F)[C@@H](O)C[C@@]21C`, under setting [1], the survivor count was 3 of 6. In the case of `NNS(=O)(=O)c1ccc2ccccc2c1`, the T/C (dose: 50.0 mg/kg/injection, schedule: Q01DX009 (ip), vehicle: other) was 126 % of control. In addition, under “dose: 400.0 mg/kg/injection, schedule: Q01DX009 (ip), vehicle: other”, the survivor count was 0 of 3. `N#Cc1c(C(=O)NN)cc(-c2cccc3ccccc23)[nH]c1=O`: the survivor count under setting [2] is reported as 3 of 6.

Regarding `O=[N+]([O-])c1ccccc1N=NNc1ccccc1`, the survivor count (dose: 400.0 mg/kg/injection, schedule: Q01DX009 (ip), vehicle: Klucel (hydroxypropylcellulose) (HPC)) was 6 of 6. Take `COc1cccc(/C=N/Nc2cc(C)nc3cc4c(cc23)OCO4)c1`: the survivor count runs as follows: under setting [3], 6 of 6; under setting [4], 2 of 6. For `CN(C)CC(CN(C)C)C(=O)/C=C/c1ccc2c(c1)OCO2`, the survivor count reads like this: (dose: 6.25 mg/kg/injection, schedule: Q01DX005 (ip), vehicle: Klucel (hydroxypropylcellulose) (HPC)) 3 of 6; under setting [3], 0 of 6; (dose: 25.0 mg/kg/injection, schedule: Q01DX005 (ip), vehicle: Klucel (hydroxypropylcellulose) (HPC)) 0 of 6; (dose: 50.0 mg/kg/injection, schedule: Q01DX005 (ip), vehicle: Klucel (hydroxypropylcellulose) (HPC)) 0 of 6; (dose: 100.0 mg/kg/injection, schedule: Q01DX005 (ip), vehicle: Klucel (hydroxypropylcellulose) (HPC)) 0 of 6; under setting [4], 0 of 6.

Regarding `O=C(O)C1CC(c2ccccc2)=NN1c1ccccc1` (configuration not stated), the T/C (dose: 200.0 mg/kg/injection, schedule: Q01DX009 (ip), vehicle: water) was 125 and 128 % of control. Also, the survivor count (dose: 300.0 mg/kg/injection, schedule: Q01DX009 (ip), vehicle: water) is recorded as 3 of 6. For `CCCCS(=O)(=O)CCC(N)C(=O)O` (configuration not stated), the survivor count under setting [5] was 0 of 6. Take `COc1cccc2c1C(=O)c1c(O)c(CCl)cc(OC)c1C2=O`: the survivor count (dose: 120.0 mg/kg/injection, schedule: Q01DX005 (ip), vehicle: saline with Tween-80) is 5 of 6 and the survivor count under setting [5] is 1 of 6. As for `Cc1cc(F)nc(F)n1`, under setting [6], the survivor count is listed as 0 of 6. For the molecule `CN(C)c1ccc(Cc2ccc(N(C)C)nc2)cn1`, the survivor count under setting [2] is given as 2 of 5.

Turning to `CCCC(O)(CCC)C1=NCCN1`, the survivor count (dose: 100.0 mg/kg/injection, schedule: Q01DX005 (ip), vehicle: saline) was 0 of 6 and the survivor count under setting [6] is given as 0 of 6. Regarding `CCOC(=O)[C]1([Hg][CH3])N=NC(C(=O)OC)=C1C(=O)OC` (configuration not stated), the survivor count (dose: 6.25 mg/kg/injection, schedule: Q01DX009 (ip), vehicle: saline) is given as 6 of 6; the survivor count (dose: 25.0 mg/kg/injection, schedule: Q01DX009 (ip), vehicle: saline) is reported as 0 of 6; the survivor count (dose: 50.0 mg/kg/injection, schedule: Q01DX009 (ip), vehicle: saline) is 0 of 6; the survivor count (dose: 100.0 mg/kg/injection, schedule: Q01DX009 (ip), vehicle: saline) was 0 of 6; the survivor count under setting [7] is 0 of 6. Turning to `Cc1ccc(O)c(C(c2cc(C)ccc2O)c2cc(C)ccc2O)c1`, the survivor count reads like this: under setting [8], 6 of 6; under setting [9], 0 of 6.

With `CNC(=O)Oc1ncccc1[N+](=O)[O-]`, the survivor count under setting [1] is on record as 0 of 6. As to `CC(C)CC([NH-])C(=O)O.[C-]#[O+].[C-]#[O+].[Rh]` (configuration not stated), the survivor count is on record as 2 of 6 (dose: 50.0 mg/kg/injection, schedule: Q01DX009 (ip), vehicle: saline with Tween-80); 0 of 6 under setting [8]; 0 of 6 under setting [9]. As to `Clc1ccc(C2N(Cc3ccccc3)CCC3CCCCN32)cc1Cl` (configuration not stated), under setting [9], the survivor count is 6 of 6. On to `CNCC(=O)Nc1ccc(C2NC(=O)Cc3ccccc32)cc1` (configuration not stated), for which the survivor count (dose: 400.0 mg/kg/injection, schedule: Q04DX002 (ip), vehicle: saline) is 1 of 6. Turning to `COC(=O)c1cc2c(s1)CCC/C(Cl)=C(/C=O)C2`, the survivor count under setting [8] is recorded as 2 of 6 and the survivor count under setting [7] was 0 of 6.
